Results deposited as PubChem BioAssay AID504808 (Drosophila RNAi Screening Center, 2011).
In all, the deposit lists about 21,000 reagents; shown is a random part of those with a known target gene and a result. Of all reagents, 18 (0.084%) got an active call. 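Raw counts without plate normalisation, one of two replicates; the ratio scores behind the calls were not deposited.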 Unmarked entries are inactive. The numbers tell different reagents against one gene apart. A plus sign joins genes that one reagent is predicted to hit. Not stated in the record: the amount of reagent, the time to read-out.

- Test: 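Genes whose loss lifts activity of an E2F-responsive reporter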 (primary screen)
- System: Drosophila S2 cells
- Reagent: long dsRNA against Drosophila genes
- Read-out: 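Dual luciferase plate measurements; E2F-specific signal taken as firefly over Renilla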
- Direction: E2F firefly: higher = more E2F reporter activity; Renilla normaliser: higher = more normaliser reporter signal
- Hit rule: 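a knock-down counted as active when the firefly/Renilla E2F signal rose above 50%, a threshold chosen arbitrarily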

target gene	reagent	E2F firefly, rep 1	Renilla normaliser, rep 1
CG7101	1	1.43e5	5133
Pex5 (Peroxin 5)	1	1.32e5	6412
CG15136	1	1.02e5	3707
sinah (sina homologue)	1	1.53e5	8261
Cby (Chibby)	1	1.37e5	7978
CG34296	1	82197	2674
CG15543	1	1.32e5	6533
Rala (Ras-like protein A)	1	87670	6183
CG42527 (retired record) + Hr4	1	1.25e5	6693
CG31259	1	1.39e5	6647
CG15473	1	1.06e5	5626
SCaMC	1	71560	3135
SCaMC	2	1.11e5	5323
CG1774	1	1808	916
mtrm (matrimony)	1	65036	3172
CG6005	1	78584	3359
Ugt303B3 (UDP-glycosyltransferase family 303 member B3)	1	98727	5979
CG43339 + CG43338	1	84889	3392
Recs1	1	1.16e5	6659
dwg (deformed wings)	1	2007	984
CG7432	1	1.36e5	7619
betaNACtes1 (Nascent-associated complex beta-subunit-like, testis 1)	1	1.63e5	6719
Blm + CG14721	1	1.19e5	7030
l(2)k09913 (lethal (2) k09913)	1	76543	3755
CG14341	1	1.72e5	6968
CG14395	1	1.37e5	6100
Fum2 (Fumarase 2)	1	92208	5479
CG4935	1	96629	4136
Bub3	1	1661	1076
sax (saxophone)	1	3020	211
Glt (Glutactin)	1	93485	4024
Ugt35E1 (UDP-glycosyltransferase family 35 member E1)	1	1.57e5	6814
CG8326	1	1.46e5	6020
Prp4k (Pre-mRNA processing factor 4 kinase)	1	69632	3546
CG13229	1	95864	3931

Reformatted: results already given.
{"target gene":"CG15136","reagent":1,"E2F firefly, rep 1":1.02e5,"Renilla normaliser, rep 1":3707}
{"target gene":"sinah (sina homologue)","reagent":1,"E2F firefly, rep 1":1.53e5,"Renilla normaliser, rep 1":8261}
{"target gene":"Cby (Chibby)","reagent":1,"E2F firefly, rep 1":1.37e5,"Renilla normaliser, rep 1":7978}
{"target gene":"CG34296","reagent":1,"E2F firefly, rep 1":82197,"Renilla normaliser, rep 1":2674}
{"target gene":"CG15543","reagent":1,"E2F firefly, rep 1":1.32e5,"Renilla normaliser, rep 1":6533}
{"target gene":"Rala (Ras-like protein A)","reagent":1,"E2F firefly, rep 1":87670,"Renilla normaliser, rep 1":6183}
{"target gene":"CG42527 (retired record) + Hr4","reagent":1,"E2F firefly, rep 1":1.25e5,"Renilla normaliser, rep 1":6693}
{"target gene":"CG31259","reagent":1,"E2F firefly, rep 1":1.39e5,"Renilla normaliser, rep 1":6647}
{"target gene":"CG15473","reagent":1,"E2F firefly, rep 1":1.06e5,"Renilla normaliser, rep 1":5626}
{"target gene":"SCaMC","reagent":1,"E2F firefly, rep 1":71560,"Renilla normaliser, rep 1":3135}

Next reagents follow.
target gene	reagent	E2F firefly, rep 1	Renilla normaliser, rep 1
RpS10b (Ribosomal protein S10b)	1	1.46e5	7025
rin (rasputin)	1	92516	4353
Or42a (Odorant receptor 42a)	1	1.05e5	4614
CG15203	1	1.29e5	6606
Ntf-2 (Nuclear transport factor-2)	1	1.32e5	4470
CG33342 (HDC15381)	1	76095	2334
LManV (Lysosomal alpha-mannosidase V)	1	82879	3406
Apc2 (Adenomatous polyposis coli 2)	1	81617	5520
Prosbeta5R2 (Proteasome beta5 subunit-related 2)	1	1.25e5	6131
Septin1 (Septin 1)	1	1.24e5	6702
SmB (Small ribonucleoprotein particle protein SmB)	1	55886	3732
Mef2 (Myocyte enhancer factor 2)	1	2635	192
AhcyL2 (Adenosylhomocysteinase like 2)	1	1.07e5	6086
CG1463	1	7763	732
CG10005	1	1.22e5	5545
poe (purity of essence)	1	94272	4602
kraken	1	1.63e5	5943
Mst98Ca (Male-specific RNA 98Ca)	1	1704	976
CG33631	1	75014	3883
kibra	1	1.06e5	6220
kibra	2	52033	5316
CG18327	1	98437	4465
Efr (ER GDP-fucose transporter)	1	1.12e5	5364
CycG (Cyclin G)	1	1670	992
CG42758	1	1.40e5	6755
Esyt2 (Extended synaptotagmin-like protein 2)	1	74535	3692
Acsf3 (Acyl-CoA synthetase family member 3)	1	5640	354
CG30466	1	1.27e5	4514
CG10505	1	1.09e5	3828
jim	1	73724	3888
CG13458	1	67177	3704
CG33080	1	1.09e5	5459
CG33080	2	1.08e5	5208
CG33080	3	1.46e5	6285
loopin-1	1	72353	4018
Adi1 (Acireductone dioxygenase 1)	1	1.21e5	6347
PhKgamma (Phosphorylase kinase gamma)	1	8159	720
Exo70 (Exocyst 70)	1	1.04e5	4392
CG30460	1	1.33e5	4773
CG30460	2	1.29e5	4101
RpS28a (Ribosomal protein S28a)	1	1.06e5	6263
Ada2a (transcriptional Adaptor 2a)	1	1.25e5	6383
Tsp42Ek (Tetraspanin 42Ek)	1	1.38e5	4737
side-VII (sidestep VII)	1	62492	3507
Ada3 (transcriptional Adaptor 3)	1	1.49e5	7221
Ada3 (transcriptional Adaptor 3)	2	1.71e5	7030
CG13041	1	1.69e5	9401
CG5697	1	1.11e5	6303
Cln3	1	1.51e5	7788
